Article doi:10.1101/2025.05.08.652952

By UniProt entry, the sequences of proteins in these tests, tags left out. Where a name states a change or a piece, a line headed by the entry shows the natural chain unless it says otherwise.
UniProt P30052: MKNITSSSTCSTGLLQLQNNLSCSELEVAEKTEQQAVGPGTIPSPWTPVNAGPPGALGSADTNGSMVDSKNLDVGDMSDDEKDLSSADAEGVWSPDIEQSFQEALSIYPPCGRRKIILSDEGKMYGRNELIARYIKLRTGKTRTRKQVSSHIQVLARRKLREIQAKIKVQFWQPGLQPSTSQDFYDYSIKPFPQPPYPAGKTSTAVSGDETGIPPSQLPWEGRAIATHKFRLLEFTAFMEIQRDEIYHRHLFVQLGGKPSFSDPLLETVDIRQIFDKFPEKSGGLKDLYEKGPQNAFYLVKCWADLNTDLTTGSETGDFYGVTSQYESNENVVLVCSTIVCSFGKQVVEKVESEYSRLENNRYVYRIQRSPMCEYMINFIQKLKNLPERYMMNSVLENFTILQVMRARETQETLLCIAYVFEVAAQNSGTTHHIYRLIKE

Molecular target: T1, Fat intracellular domain, 3xFLAG-tagged (pAc-ftICD-3xFLAG) (Drosophila melanogaster) (UniProt P33450)
T1 sequence: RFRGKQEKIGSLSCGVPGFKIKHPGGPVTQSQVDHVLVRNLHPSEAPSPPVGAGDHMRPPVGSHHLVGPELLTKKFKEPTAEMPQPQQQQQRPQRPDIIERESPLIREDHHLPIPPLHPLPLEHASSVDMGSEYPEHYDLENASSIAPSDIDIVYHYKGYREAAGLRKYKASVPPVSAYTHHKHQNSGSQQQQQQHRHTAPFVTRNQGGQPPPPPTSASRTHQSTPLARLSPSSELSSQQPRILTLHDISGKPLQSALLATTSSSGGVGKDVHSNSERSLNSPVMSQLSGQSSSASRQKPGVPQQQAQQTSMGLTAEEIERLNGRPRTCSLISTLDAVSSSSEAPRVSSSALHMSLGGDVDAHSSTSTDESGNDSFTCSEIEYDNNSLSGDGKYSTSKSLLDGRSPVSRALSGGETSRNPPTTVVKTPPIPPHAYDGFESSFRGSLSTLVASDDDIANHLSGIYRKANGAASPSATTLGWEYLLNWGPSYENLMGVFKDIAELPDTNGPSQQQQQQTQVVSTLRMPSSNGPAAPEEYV
Assay: co-IP

“Scalloped C-terminal part, HSV-tagged (pAc-HSV-sdC) (from UniProt P30052) (domain or fragment)” was tested, and the binding was “binds”.

No constants are given. Whether binding was seen depends on the method and setting. Binding seen in cells or lysates may run through a third protein. Binding can be weak; no strength is given. Sequences can lack the tags named with a protein.
